Experimental data from paper PMC4587330.
Results are given in words; binding and its absence hold for the method and conditions named. In cells and extracts the contact can be indirect. These calls come from enrichment with a bait or labelling near it, and not all partners need be listed. For some assays here: No binding means not detected with the bait.

The chains behind the UniProt entries cited, without tags or fusion partners.
UniProt Q02206: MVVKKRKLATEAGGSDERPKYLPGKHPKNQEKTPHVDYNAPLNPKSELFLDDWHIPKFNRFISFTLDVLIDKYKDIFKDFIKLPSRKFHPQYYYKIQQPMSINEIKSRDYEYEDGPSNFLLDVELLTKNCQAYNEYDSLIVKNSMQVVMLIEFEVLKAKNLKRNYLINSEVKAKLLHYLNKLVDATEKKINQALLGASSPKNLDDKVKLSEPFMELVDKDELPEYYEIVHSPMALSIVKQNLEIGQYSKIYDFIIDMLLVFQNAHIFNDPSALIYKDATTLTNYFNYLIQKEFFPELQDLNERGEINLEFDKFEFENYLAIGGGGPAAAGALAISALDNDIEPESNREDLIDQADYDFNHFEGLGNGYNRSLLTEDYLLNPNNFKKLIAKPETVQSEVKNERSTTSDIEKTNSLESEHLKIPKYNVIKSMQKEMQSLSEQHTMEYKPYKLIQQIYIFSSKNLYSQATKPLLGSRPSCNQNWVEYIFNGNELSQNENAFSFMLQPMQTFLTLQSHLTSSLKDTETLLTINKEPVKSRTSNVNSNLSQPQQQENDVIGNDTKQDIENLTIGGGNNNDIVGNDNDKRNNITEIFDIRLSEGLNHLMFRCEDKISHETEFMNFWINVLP
UniProt P43609: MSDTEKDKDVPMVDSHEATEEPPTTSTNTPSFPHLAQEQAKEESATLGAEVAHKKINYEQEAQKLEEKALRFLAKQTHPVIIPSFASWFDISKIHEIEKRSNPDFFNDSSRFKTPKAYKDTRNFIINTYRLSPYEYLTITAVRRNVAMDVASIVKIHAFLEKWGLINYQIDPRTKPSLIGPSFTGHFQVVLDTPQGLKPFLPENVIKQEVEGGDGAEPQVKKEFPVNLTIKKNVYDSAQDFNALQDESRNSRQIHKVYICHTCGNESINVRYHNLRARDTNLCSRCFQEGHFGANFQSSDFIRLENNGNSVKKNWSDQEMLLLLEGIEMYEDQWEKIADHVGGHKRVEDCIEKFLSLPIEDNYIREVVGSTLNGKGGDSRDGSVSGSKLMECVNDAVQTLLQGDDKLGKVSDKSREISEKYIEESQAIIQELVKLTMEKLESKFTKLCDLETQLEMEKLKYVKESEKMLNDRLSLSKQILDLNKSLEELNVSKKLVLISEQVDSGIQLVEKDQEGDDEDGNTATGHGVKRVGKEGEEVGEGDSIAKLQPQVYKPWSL
UniProt Q06488: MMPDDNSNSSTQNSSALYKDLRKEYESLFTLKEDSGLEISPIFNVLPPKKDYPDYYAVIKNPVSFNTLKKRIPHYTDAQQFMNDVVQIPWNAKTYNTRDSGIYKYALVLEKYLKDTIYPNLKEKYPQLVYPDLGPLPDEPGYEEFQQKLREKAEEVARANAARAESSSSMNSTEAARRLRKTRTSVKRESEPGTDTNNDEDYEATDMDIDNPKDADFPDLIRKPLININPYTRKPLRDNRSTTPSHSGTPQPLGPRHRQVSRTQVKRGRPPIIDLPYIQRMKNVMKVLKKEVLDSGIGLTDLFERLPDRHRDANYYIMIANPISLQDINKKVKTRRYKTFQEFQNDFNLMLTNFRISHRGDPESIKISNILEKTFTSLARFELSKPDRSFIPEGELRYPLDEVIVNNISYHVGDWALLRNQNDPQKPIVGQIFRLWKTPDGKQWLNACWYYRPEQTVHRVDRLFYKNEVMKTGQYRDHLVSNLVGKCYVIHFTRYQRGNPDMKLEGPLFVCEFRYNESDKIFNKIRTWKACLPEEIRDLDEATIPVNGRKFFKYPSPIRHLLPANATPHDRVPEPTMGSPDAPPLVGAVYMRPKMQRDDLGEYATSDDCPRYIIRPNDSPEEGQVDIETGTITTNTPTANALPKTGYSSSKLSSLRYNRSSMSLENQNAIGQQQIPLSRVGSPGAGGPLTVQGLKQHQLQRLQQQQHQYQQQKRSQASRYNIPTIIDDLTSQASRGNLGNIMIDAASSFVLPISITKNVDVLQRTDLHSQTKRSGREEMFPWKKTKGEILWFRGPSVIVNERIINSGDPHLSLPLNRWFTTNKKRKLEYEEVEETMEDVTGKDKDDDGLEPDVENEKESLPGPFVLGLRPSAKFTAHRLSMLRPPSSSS

Legend:
Experiment in all cases: affinity purification with mass spectrometry; 96-sample screen of 30 GFP-tagged baits: captured from cleared yeast lysate (500 ug) on GFP-multiTrap plate, 60 min, 4 C, 150 mM NaCl, 50 mM Tris-HCl pH 8.0; biological triplicates; 27 min method (Q Exactive Plus); enrichment against the parental strain, FDR-controlled t test and profile …
[1] = biological target: RSC4, GFP-tagged bait (S. cerevisiae) (UniProt Q02206)
[2] = biological target: RSC8, GFP-tagged bait (S. cerevisiae) (UniProt P43609)
[3] = biological target: RSC2, GFP-tagged bait (S. cerevisiae) (UniProt Q06488)

binding [1] | binding [2] | binding [3] | Molecule
binds | binds | – | RSC2 (from UniProt Q06488 1-889)
binds | binds | no binding | RSC1 (protein, UniProt P53236 1-928) MVEQDNGFLQKLLKTQYDAVFHLKDENGIEIYPIFNVLPPKKEYPDYYIIIRNPISLNTLKKRLPHYTSPQDFVNDFAQIPWNAMTYNAKDSVIYKYAILLESFIKGKIVHNIRKHYPEVTYPSLGRIPEIFAESMQPSDLSSNPINTQENDEKAGLNPEMKMAFAKLDSSITERKPTNQDYRMQQKNSPAFPTHSASITPQPLASPTPVVNYANITSAHPKTHVRRGRPPVIDLPYVLRIKNILKMMRREVDQNNKTLTLCFEKLPDRNEEPTYYSVITDPICLMDIRKKVKSRKYRNFHTFEEDFQLMLTNFKLYYSQDQSNIIRAQLLEKNFNRLVRIELSKPDEDYLPEGELRYPLDDVEINDEKYQIGDWVLLHNPNDINKPIVGQIFRLWSTTDGNKWLNACWYFRPEQTVHRVDRLFYKNEVMKTGQYRDHPIQDIKGKCYVIHFTRFQRGDPSTKVNGPQFVCEFRYNESDKVFNKIRTWKACLPEELRDQDEPTIPVNGRKFFKYPSPIADLLPANATLNDKVPEPTEGAPTAPPLVGAVYLGPKLERDDLGEYSTSDDCPRYIIRPNDPPEEGKIDYETGTIITDTLTTSSMPRVNSSSTIRLPTLKQTKSIPSSNFRSSSNTPLLHQNFNQTSNFLKLENMNNSSHNLLSHPSVPKFQSPSLLEQSSRSKYHSAKKQTQLSSTAPKKPASKSFTLSSMINTLTAHTSKYNFNHIVIEAPGAFVVPVPMEKNIRTIQSTERFSRSNLKNAQNLGNTAINDINTANEQIIWFKGPGVKITERVIDSGNDLVRVPLNRWFCKNKRRKLDYEDIEEDVMEPPNDFSEDMIANIFNPPPSLNLDMDLNLSPSSNNSSNFMDLSTIASGDNDGKECDTAEESEDENEDTEDEHEIEDIPTTSAFGLNSSAEYLAFRLREFNKL
